Values quoted from earlier work as cited in patent publication US20250177299A1, “MOLECULAR COMPLEXING METHOD, FORMULATION AND MANUFACTURING FOR ENHANCED NUTRIENT DELIVERY” (Ingredient Fusion, LLC, priority 2021, published 2025).
Values after ≈ are worked out from the molar mass of the structure shown.

Settings: cited from earlier work

Structure (SMILES): O=c1c(O)c(-c2ccc(O)c(O)c2)oc2cc(O)cc(O)c12 [flavonoid, Quercetin]
- solubility in water (at 140° C): 0.665 g/L (≈ 2200 µM)

Structure (SMILES): O=c1c(O)c(-c2ccc(O)c(O)c2)oc2cc(O)cc(O)c12 [Quercetin Aglycone]
- solubility (aglycone (CAS 117-39-5), at 70° F): less than 1 mg/mL
